Reference: PubChem BioAssay AID504784 (Drosophila RNAi Screening Center, 2011)
Screen: 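Fly genes whose silencing alters how much lipid cells keep in droplets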 (primary screen). Cell system: Drosophila Kc167 embryonic cells. Reagents: long dsRNA against Drosophila genes, about 250 ng dsRNA per well. Timing: 4 days. Treatment: cells fed 400 µM oleic acid bound to BSA. Read-out: 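Cells imaged and segmented; ratio of lipid droplet area to nuclear area, log-transformed, then normalised as a B-score over the screen; higher means more stored lipid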. Reading the numbers: droplet/nuclear area B-score: higher = more stored lipid (overstorage).
The deposit covers about 17,000 reagents; below is a random part of those that have a named target and a result. 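Each column is one replicate's B-score; the combined score over replicates was not deposited, so single values may mislead.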 A plus sign joins genes that one reagent is predicted to hit. Not all columns of the deposit are shown.

Gene | amplicon | droplet/nuclear area B-score, replicate 1
CG4598 (GeneID 34315) | DRSC02763 | -1.18
Fbp1 (GeneID 39566) | DRSC11166 | 0.032
tin (GeneID 42536) | DRSC17083 | 0.287
tin (GeneID 42536) | DRSC22853 | 2.35
tin (GeneID 42536) | DRSC23248 | -2.55
CG31681 (GeneID 318882) | DRSC00107 | -0.382
CG11085 (GeneID 32213) | DRSC19374 | -0.213
CG11085 (GeneID 32213) | DRSC22832 | 0.438
CG13337 (GeneID 36518) | DRSC06371 | -0.877
Klp10A (GeneID 32049) | DRSC19601 | 1.19
apolpp (GeneID 43827) | DRSC17216 | 0.102
CG2017 (GeneID 40733) | DRSC12293 | 0.359
pst (GeneID 38818) | DRSC11003 | -0.408
PGAP3 (GeneID 35570) | DRSC04989 | -0.432
CG33099 (GeneID 326254) | DRSC15774 | 0.0751
Stlk (GeneID 3355135) | DRSC22687 | 1.06
mas (GeneID 38499) | DRSC08720 | 1.25
rtet (GeneID 42500) | DRSC14160 | 1.53
Ttc1 (GeneID 41993) | DRSC15016 | 0.11
Ttc1 (GeneID 41993) | DRSC22469 | 1.74
uzip (GeneID 38002) | DRSC04722 | 1.38
RagC-D (GeneID 35793) | DRSC07239 | -1.12
CG8204 (GeneID 36728) | DRSC07106 | -0.304
mRpS30 (GeneID 32530) | DRSC20107 | 2.56
RpL41 (GeneID 251466) | DRSC22958 | 1.06
Dbct (GeneID 32441) | DRSC19951 | 0.0109
CG17597 (GeneID 35140) | DRSC02630 | 0.0481
Bub3 (GeneID 43490) | DRSC14168 | 0.255
CG1544 (GeneID 43689) | DRSC15036 | 0.236
Nagk (GeneID 41863) | DRSC15994 | -1.05
CG45263 (GeneID 50003) | DRSC14360 | 0.734
CG45263 (GeneID 50003) | DRSC14361 | 0.422
CG45263 (GeneID 50003) | DRSC14363 | -0.337
Smg5 (GeneID 34804) | DRSC03124 | -1.11
Ilp3 (GeneID 39151) | DRSC10168 | -0.378
Nepl7 (GeneID 34671) | DRSC02495 | -0.689
MFS3 (GeneID 33292) | DRSC00664 | 0.776
Osi21 (GeneID 34566) | DRSC02408 | -0.319
CG11674 (GeneID 32374) | DRSC19414 | 0.363
CG15717 (GeneID 32262) | DRSC19684 | -0.391
CG42827 + CG42828 | DRSC16116 | 1.28
CG42634 + CG42635 | DRSC02450 | 1.64
SPE (GeneID 42791) | DRSC15135 | -1.42
Nuf2 (GeneID 33992) | DRSC03123 | 0.838
CG3880 (GeneID 37957) | DRSC04428 | -1.02
CG3880 (GeneID 37957) | DRSC21404 | 1.04
Cog3 (GeneID 33562) | DRSC00585 | -0.00863
RpL9 (GeneID 34526) | DRSC03418 | 5.86
Ror (GeneID 34367) | DRSC03414 | 1.49
apt (GeneID 37734) | DRSC04671 | 1.46
apt (GeneID 37734) | DRSC23278 | -0.428
Pstk + Tim9b | DRSC19504 | 1.53
Pstk + Tim9b | DRSC20292 | 0.717
zye (GeneID 40255) | DRSC11784 | -0.452
CG14187 (GeneID 40199) | DRSC10186 | 1.44

Laid out differently: results already given.
| Gene | amplicon | droplet/nuclear area B-score, replicate 1 |
| --- | --- | --- |
| tin (GeneID 42536) | DRSC23248 | -2.55 |
| CG31681 (GeneID 318882) | DRSC00107 | -0.382 |
| CG11085 (GeneID 32213) | DRSC19374 | -0.213 |
| CG11085 (GeneID 32213) | DRSC22832 | 0.438 |
| CG13337 (GeneID 36518) | DRSC06371 | -0.877 |

The list goes on.
Gene | amplicon | droplet/nuclear area B-score, replicate 1
CG9682 (GeneID 43602) | DRSC16536 | 0.522
CG3770 (GeneID 37991) | DRSC04416 | -2.13
CG7781 (GeneID 34143) | DRSC03068 | -0.209
dl (GeneID 35047) | DRSC03520 | 0.235
dl (GeneID 35047) | DRSC03521 | 2.52
CG11843 (GeneID 43432) | DRSC14401 | -0.826
CG18234 (GeneID 40024) | DRSC10309 | -0.00718
eIF3c (GeneID 37005) | DRSC06905 | 3.04
Polr2J (GeneID 35043) | DRSC02995 | 1.51
CG13039 (GeneID 39805) | DRSC09920 | -0.685
CG43689 (GeneID 31353) | DRSC18383 | 2.16
CG43689 (GeneID 31353) | DRSC22467 | 1.47
CG43689 (GeneID 31353) | DRSC23070 | -0.022
CG10311 (GeneID 41984) | DRSC14228 | -1.39
Nacalpha (GeneID 36409) | DRSC07477 | 3.36
cer (GeneID 37229) | DRSC05992 | 1.22
MED20 (GeneID 43952) | DRSC03463 | -0.481
CG11537 (GeneID 38373) | DRSC08200 | -1.4
CG31546 (GeneID 40691) | DRSC12317 | 0.911
snRNP-U1-C (GeneID 42274) | DRSC15804 | 1.63
CG3176 + CR18166 + CG32817 | DRSC17271 | 0.00327
CG3176 + CR18166 + CG32817 | DRSC17282 | -0.167
CG3176 + CR18166 + CG32817 | DRSC18288 | -1.39
sNPF-R (GeneID 40195) | DRSC10836 | -1.51
BicC (GeneID 34946) | DRSC02005 | -1.12
Thor (GeneID 33569) | DRSC00770 | -0.0691
Fer1HCH (GeneID 46415) | DRSC16671 | 0.318
CG32683 (GeneID 31970) | DRSC17990 | -0.934
CG32683 (GeneID 31970) | DRSC18232 | 1.46
CG32683 (GeneID 31970) | DRSC18233 | 0.933
